According to PubChem BioAssay AID540276 (National Center for Advancing Translational Sciences (NCATS), 2011):
“And” between values parts separate entries of the source, which are not always exact repeats. Identical values can stand only once. The campaign covered roughly 300,000 compounds. About 5,400 (1.8%) were called active. This list was built around the results that the source calls inconclusive (neither active nor inactive); the mix of calls is not that of the screen. Calls follow the shape of the full dose curve; tested in HEK293 cells. A potency beside an inconclusive call is a rough fit, not a confirmed value.

Assay: qHTS for inhibitors of binding or entry into cells for Marburg Virus
Settings: Marburg virus pseudotyped entry inhibition, cell reporter; activity change, negative = inhibition: at 37.8 µM (top of the series) unless noted
% is scaled to controls: 0 for no effect and ±100 for the full control effect; potency is read from the fitted curve at half-maximal effect.

| Compound | Potency | activity change, negative = inhibition |
| --- | --- | --- |
| COc1ccc(CC(=O)Nc2cccc(-c3nnc(-c4cccc(C)c4)o3)c2)cc1OC | inconclusive: 35.5 µM [inhibitor, single point] |  |
| O=C(NC1CCCCCC1)c1c(O)c2ccccc2[nH]c1=O | inconclusive: 0.398 µM [activator, partial curve, poor fit] |  |
| CCOc1cc(C)nc(N2CCCC(C(=O)NCc3ccccc3F)C2)n1 (stereo unspecified) |  | inactive: -16.5% |
| CCCc1cc(=O)[nH]c(SCC(=O)Nc2cc(C)on2)n1 |  | inactive: -24.5% [at 46.1 µM] |
| O=C(CCC(=O)c1ccc[nH]1)c1ccc(Cl)cc1 |  | inactive: -13.5% |
| O=C(Nc1cccc(F)c1)c1c(O)c2ccccc2[nH]c1=O |  | inactive: 0.243% |
| CCOc1cc(/C=C2/C(=O)ON=C2C)ccc1OCc1ccc(F)cc1 | inconclusive: 29.1 µM [inhibitor, single point] |  |
| CC(C)COc1ccc(CNC(=S)Nc2ccccc2)cc1Cl | inconclusive: 35.5 µM [inhibitor, single point] |  |
| CNS(=O)(=O)c1ccc(NC(=O)c2ccoc2C)cc1 | inconclusive: 14.1 µM [activator, partial curve, poor fit] |  |
| CC1=C(C(=O)Nc2cccnc2)C(c2ccc(Cl)cc2)n2nc(-c3ccccc3)nc2N1 (stereo unspecified) | inconclusive: 20 µM [inhibitor, partial curve, poor fit] |  |
| CC(Sc1nnc(CN2CCCC2)n1Cc1ccccc1)C(=O)Nc1ccc(F)cc1Cl (stereo unspecified) | inconclusive: 22.4 µM [inhibitor, partial curve] |  |
| Cc1nn(C)c(C)c1NC(=O)CCSc1nc(-c2ccco2)cc(C(F)(F)F)n1 | inactive |  |
| Clc1ccc(OCCN2CCN(c3ncnc4sccc34)CC2)cc1 | inactive and inconclusive: 2.31 µM [inhibitor, full curve, poor fit] |  |
| Cc1ccc(/C=N/c2sc3c(c2C#N)CCC3)s1 | inconclusive: 0.891 µM [activator, full curve, poor fit] |  |
| C=CCOc1ccccc1/C=N/NC(=O)c1ccc(Cl)cc1Cl | inconclusive: 5.62 µM [activator, single point] |  |
| COc1ccc2c(C)cc(N3CCN(c4ccc(F)cc4)CC3)nc2c1 | inconclusive: 29.1 µM [inhibitor, partial curve, poor fit] |  |
| COc1ccc(N(CC(=O)NC2CCCC2)C(=O)Cn2nnc(-c3ccc(C)cc3)n2)cc1 | inconclusive: 11.6 µM [inhibitor, partial curve, poor fit] |  |
| Cc1ccn(-c2n[nH]c(C)c2[N+](=O)[O-])n1 | inconclusive: 35.5 µM [activator, single point] |  |
| COc1cccc(C(O)c2cnc(C(C)C)n2C)c1 (stereo unspecified) |  | inactive: 12.2% [at 46.1 µM] |
| CCC(=O)N1CCN(c2ccc(NC(=O)c3ccco3)cc2)CC1 |  | inactive: 5.23% |
| C(=Cc1cnnc2ccccc12)c1ccccc1 | inconclusive: 22.4 µM [inhibitor, single point] |  |
| CSc1ccccc1C(=O)Nc1cccc(C)c1 | inconclusive: 29.1 µM [activator, single point] |  |

| Compound | Potency | activity change, negative = inhibition |
| --- | --- | --- |
| COc1cc2ccccc2cc1C(=O)NC(=S)Nc1cccc(C(=O)O)c1 | inconclusive: 7.94 µM [activator, partial curve, poor fit] |  |
| CC1=CC2OC3CC4OC(=O)C=CC=CC(C(C)O)OCC(O)C(C)CC(=O)OCC2(CC1O)C4(C)C31CO1 (stereo unspecified) |  | inactive: -71.8% |
| CN(Cc1ccccc1)C(=O)CN1C(=O)COc2ccc(S(=O)(=O)N3CCCC3)cc21 |  | inactive: 5.12% [at 46.1 µM] |
| CC(=O)N1CCC(C(=O)OCc2ccccc2F)(c2ccccc2)CC1 | inconclusive: 6.31 µM [activator, single point] |  |
| CC1CN(S(=O)(=O)c2ccc(C(=O)Nc3ccc(S(=O)(=O)Nc4nccs4)cc3)cc2)CC(C)O1 (stereo unspecified) |  | inactive: 13.6% |
| COc1cc2c(cc1NC(=O)/C=C/c1ccccc1)oc1ccccc12 | inconclusive: 29.1 µM [inhibitor, single point] |  |
| CCN(C(=O)COC(=O)c1cc(-c2ccc3cc(OC)ccc3c2)nc2ccccc12)C1CCS(=O)(=O)C1 (stereo unspecified) |  | inactive: -20.4% |
| CC(=O)Nc1cccc2c1C(=O)N(c1ccccc1OC(C)=O)C2=O | inconclusive: 6.31 µM [inhibitor, single point] |  |
| CC(c1ccon1)N(C)Cc1cn[nH]c1-c1ccc(-c2ccccc2)cc1 (stereo unspecified) | inconclusive: 18.3 µM [inhibitor, single point] |  |
| Cc1cccc(N(Cc2ccccc2)C(=O)c2cc(S(=O)(=O)N3CCOCC3)ccc2Cl)c1 | active: 12.6 µM |  |
| Cn1nc(C(=O)Nc2cccc(S(=O)(=O)N3CCCCC3)c2)c2ccccc2c1=O | active: 6.31 µM |  |
| COc1ccc(/C=C/C(=O)C2(O)CCCCC2)cc1 | inconclusive: 11.2 µM [inhibitor, partial curve, poor fit] |  |
| CC(=O)c1nn(-c2cccc(Br)c2)cc1C(=O)c1ccc(C)cc1 |  | inactive: -29.8% |
| CC(=O)c1c(C)[nH]c(C(=O)OCC(=O)Nc2ccc3c(c2)OCCO3)c1C | inconclusive: 11.2 µM [inhibitor, single point] |  |
| COCCN=c1scc(-c2ccc3c(c2)NC(=O)CO3)n1/N=C(\C)c1ccc(O)cc1 | inconclusive: 25.1 µM [inhibitor, single point] |  |
| N#Cc1c(NC(=O)Cn2cnc3ccccc3c2=O)oc(-c2ccccc2)c1-c1ccccc1 | inconclusive: 7.08 µM [activator, partial curve, poor fit] |  |
| Cc1cccc(C2c3[nH]c4ccccc4c3CCN2Cc2cccn2-c2ncccn2)c1 (stereo unspecified) | inconclusive: 6.31 µM [inhibitor, partial curve, poor fit] |  |
| Cc1cc2c(C(F)(F)F)cc(=O)oc2c2c1NCCC2 | inconclusive: 0.82 µM [inhibitor, full curve] |  |
| OCC1(Cc2ccccc2)CCCN(Cc2ccc(-c3ccco3)cc2)C1 (stereo unspecified) | inconclusive: 10 µM [inhibitor, partial curve, poor fit] |  |
| O=S(=O)(c1ccc2c(c1)N(Cc1ccc(Cl)cc1)C1CCCN21)N1CCOCC1 (stereo unspecified) | inconclusive: 4.47 µM [activator, full curve, poor fit] |  |
| O=C(CCS(=O)(=O)c1ccccc1)N1CCOCC1 |  | inactive: 11.9% [at 46.1 µM] |
| O=C(O)CC1c2ccccc2CCN1S(=O)(=O)c1ccccc1 (stereo unspecified) |  | inactive: 6.67% [at 46.1 µM] |

| Compound | Potency | activity change, negative = inhibition |
| --- | --- | --- |
| Cc1ccc(C)c(Cn2c(=O)n(CCCCC(=O)NCc3ccccc3Cl)c(=O)c3ccccc32)c1 |  | inactive: -0.722% [at 46.1 µM] |
| COc1ccc(CCN(C)S(=O)(=O)c2ccc(Cl)nc2)cc1OC | inconclusive: 3.55 µM [inhibitor, partial curve, poor fit] |  |
| O=C(COc1ccc2cc(Br)ccc2c1Br)N1CCOCC1 | inconclusive: 12.6 µM [inhibitor, partial curve, poor fit] |  |
| COc1ccc(-c2nc(-c3ccccc3)oc2Nc2ccccc2C)cc1 | inconclusive: 1.19 µM [activator, partial curve, poor fit] |  |
| CNC(=O)c1cccnc1Nc1cccc(C(F)(F)F)c1 |  | inactive: 30.9% |
| Cc1ccc(C(C)C)c(OCCCN2C(=O)NC(C)(C)C2=O)c1 | inconclusive: 4.61 µM [inhibitor, full curve, poor fit] |  |
| COCCN(Cc1ccccc1)C(=O)c1ccc2c(=O)n3c(nc2c1)CCC3 |  | inactive: -2.63% |
| COc1ccc(NS(=O)(=O)c2ccc(NC(=O)Cc3cccs3)cc2)cc1 | inconclusive: 15.8 µM [inhibitor, single point] |  |
| O=C(Nc1ccc(N2CCN(C(=O)c3ccco3)CC2)c(Cl)c1)c1cc2ccccc2o1 | inconclusive: 35.5 µM [inhibitor, single point] |  |
| Cc1ccc(-c2nc3ccccc3n3c(-c4ccccc4)c4c(=O)n(C)c(=O)n(C)c4c23)cc1 | inconclusive: 22.4 µM [activator, partial curve, poor fit] |  |
| COc1ccc(CCN(C)C(=O)C2CCN(C(=O)Nc3ccccc3)CC2)cc1OC |  | inactive: 14.4% [at 46.1 µM] |
| O=S(=O)(c1cccc2nsnc12)N1CCNCC1 |  | inactive: -23% [at 46.1 µM] |
| CC1CCCC(C)N1NC(=S)Nc1ccc(OC(F)F)cc1 (stereo unspecified) | inconclusive: 29.1 µM [inhibitor, single point] |  |
| Cc1ccn(CC(=O)N/N=C/c2cc([N+](=O)[O-])ccc2O)n1 | inconclusive: 10 µM [inhibitor, partial curve, poor fit] |  |
| Nc1nc(NCCCN2CCOCC2)nc(Nc2cccc(Cl)c2)c1[N+](=O)[O-] | inconclusive: 35.5 µM [inhibitor, single point] |  |
| CCN(CC)C1=CC2=CC(=C(C#N)C#N)CCC2CC1 (stereo unspecified) | inconclusive: 7.08 µM [inhibitor, partial curve, poor fit] |  |
| Cc1ccc(COc2ccc(CNCCCN3CCCCCC3=O)cc2)cc1 | inconclusive: 29.1 µM [inhibitor, single point] |  |
| C#CCCCO/N=C1\C[C@@H](O)[C@@H](O)[C@@H]2[C@@H]3C(=O)N(c4cccc(Oc5ccccc5)c4)C(=O)[C@@H]3CC[C@@H]12 | inconclusive: 0.376 µM [inhibitor, partial curve] |  |
| COc1cc2c(C(=O)NCc3ccc4c(c3)OCO4)cn(CC(C)C)c(=O)c2cc1OC | inconclusive: 17.8 µM [inhibitor, partial curve, poor fit] |  |
| COc1cccc(/C=C/C(=O)Nc2ccc(C(=O)Nc3cccc(S(N)(=O)=O)c3)cc2)c1OC | inconclusive: 2.24 µM [inhibitor, full curve] |  |
| Clc1ccc(-c2c[n+](Cc3cccc(Cl)c3)c3n2CCC3)cc1 |  | inactive: 0.661% |
| COc1ccc(-c2[nH]c(-c3cc(OC)c4c(c3)OCO4)nc2-c2ccccc2)cc1 | inconclusive: 14.1 µM [inhibitor, partial curve, poor fit] |  |
